No constants are given. Whether binding was seen depends on the method and setting. In cells and extracts the contact can be indirect. Some binding calls cover weakened binding; strength is not graded here.
Target: endogenous VEGFR2 (human (endogenous in HUVECs)) (UniProt P35968)
Assay: co-IP; endogenous proteins in HUVECs; for VEGFR2 cells starved and stimulated with 100 ng/ml VEGFa for 5 min; IgG as negative control; TNE buffer

Protein sequences, listed by entry. Tags and fused reporters are not part of them. Residues count along the entry.
UniProt P35968, residues 20-1356: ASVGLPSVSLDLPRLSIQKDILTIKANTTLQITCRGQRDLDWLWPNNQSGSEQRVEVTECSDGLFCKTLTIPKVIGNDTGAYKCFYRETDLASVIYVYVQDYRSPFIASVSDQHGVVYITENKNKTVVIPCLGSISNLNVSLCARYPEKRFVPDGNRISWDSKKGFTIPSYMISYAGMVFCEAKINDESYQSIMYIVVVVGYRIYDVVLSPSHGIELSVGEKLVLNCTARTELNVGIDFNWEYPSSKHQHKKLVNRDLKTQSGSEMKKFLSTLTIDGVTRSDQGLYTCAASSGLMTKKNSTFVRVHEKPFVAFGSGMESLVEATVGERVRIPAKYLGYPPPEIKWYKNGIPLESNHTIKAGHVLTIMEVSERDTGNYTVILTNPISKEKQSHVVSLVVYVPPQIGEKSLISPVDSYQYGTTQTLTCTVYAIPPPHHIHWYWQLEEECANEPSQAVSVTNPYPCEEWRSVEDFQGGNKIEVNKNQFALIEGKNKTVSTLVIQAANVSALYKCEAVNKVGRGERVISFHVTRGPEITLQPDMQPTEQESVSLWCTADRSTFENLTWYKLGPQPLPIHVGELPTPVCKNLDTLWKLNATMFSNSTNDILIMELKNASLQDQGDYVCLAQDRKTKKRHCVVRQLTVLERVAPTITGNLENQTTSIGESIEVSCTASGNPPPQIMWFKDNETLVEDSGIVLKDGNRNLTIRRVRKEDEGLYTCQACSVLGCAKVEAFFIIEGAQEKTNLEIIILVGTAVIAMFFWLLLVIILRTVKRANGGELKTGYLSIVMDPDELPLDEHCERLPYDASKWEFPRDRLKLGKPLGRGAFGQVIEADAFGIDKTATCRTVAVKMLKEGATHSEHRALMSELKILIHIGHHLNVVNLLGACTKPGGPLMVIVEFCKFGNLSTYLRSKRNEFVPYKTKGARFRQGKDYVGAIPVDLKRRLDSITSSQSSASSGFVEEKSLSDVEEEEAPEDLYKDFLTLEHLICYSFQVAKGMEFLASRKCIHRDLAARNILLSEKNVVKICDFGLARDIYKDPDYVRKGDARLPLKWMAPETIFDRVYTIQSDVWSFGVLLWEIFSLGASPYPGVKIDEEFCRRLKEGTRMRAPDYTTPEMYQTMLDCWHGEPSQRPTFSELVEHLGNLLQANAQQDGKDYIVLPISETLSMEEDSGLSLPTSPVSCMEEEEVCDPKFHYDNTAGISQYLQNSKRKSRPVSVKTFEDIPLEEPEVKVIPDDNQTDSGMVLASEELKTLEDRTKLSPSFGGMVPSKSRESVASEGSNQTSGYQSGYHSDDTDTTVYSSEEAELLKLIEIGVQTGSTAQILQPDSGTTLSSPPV
UniProt O76054: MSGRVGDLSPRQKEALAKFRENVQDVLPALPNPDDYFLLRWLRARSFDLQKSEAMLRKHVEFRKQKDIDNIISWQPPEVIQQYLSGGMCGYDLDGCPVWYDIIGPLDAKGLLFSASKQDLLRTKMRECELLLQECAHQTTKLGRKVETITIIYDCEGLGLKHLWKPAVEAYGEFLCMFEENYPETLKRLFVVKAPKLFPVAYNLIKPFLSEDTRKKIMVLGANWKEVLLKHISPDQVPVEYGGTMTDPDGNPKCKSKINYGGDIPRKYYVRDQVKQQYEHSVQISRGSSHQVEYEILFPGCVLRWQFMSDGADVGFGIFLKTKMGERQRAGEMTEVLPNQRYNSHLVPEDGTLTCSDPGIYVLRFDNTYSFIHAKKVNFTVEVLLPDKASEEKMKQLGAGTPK

- binding: binds
Substance: endogenous SEC14L2 (from UniProt O76054 1-403)

From article PMC6453981
